In article PMC12564220:
Results are given in words; binding and its absence hold for the method and conditions named. In cells and extracts the contact can be indirect. A yes stands for co-enrichment or nearness to the bait. Other partners may have been found. Sequences can lack the tags named with a protein.

Sequences of proteins named here, by UniProt entry; tags and fusion partners are left off. Residues count along the entry.
UniProt Q9NYU2, residues 43-1555: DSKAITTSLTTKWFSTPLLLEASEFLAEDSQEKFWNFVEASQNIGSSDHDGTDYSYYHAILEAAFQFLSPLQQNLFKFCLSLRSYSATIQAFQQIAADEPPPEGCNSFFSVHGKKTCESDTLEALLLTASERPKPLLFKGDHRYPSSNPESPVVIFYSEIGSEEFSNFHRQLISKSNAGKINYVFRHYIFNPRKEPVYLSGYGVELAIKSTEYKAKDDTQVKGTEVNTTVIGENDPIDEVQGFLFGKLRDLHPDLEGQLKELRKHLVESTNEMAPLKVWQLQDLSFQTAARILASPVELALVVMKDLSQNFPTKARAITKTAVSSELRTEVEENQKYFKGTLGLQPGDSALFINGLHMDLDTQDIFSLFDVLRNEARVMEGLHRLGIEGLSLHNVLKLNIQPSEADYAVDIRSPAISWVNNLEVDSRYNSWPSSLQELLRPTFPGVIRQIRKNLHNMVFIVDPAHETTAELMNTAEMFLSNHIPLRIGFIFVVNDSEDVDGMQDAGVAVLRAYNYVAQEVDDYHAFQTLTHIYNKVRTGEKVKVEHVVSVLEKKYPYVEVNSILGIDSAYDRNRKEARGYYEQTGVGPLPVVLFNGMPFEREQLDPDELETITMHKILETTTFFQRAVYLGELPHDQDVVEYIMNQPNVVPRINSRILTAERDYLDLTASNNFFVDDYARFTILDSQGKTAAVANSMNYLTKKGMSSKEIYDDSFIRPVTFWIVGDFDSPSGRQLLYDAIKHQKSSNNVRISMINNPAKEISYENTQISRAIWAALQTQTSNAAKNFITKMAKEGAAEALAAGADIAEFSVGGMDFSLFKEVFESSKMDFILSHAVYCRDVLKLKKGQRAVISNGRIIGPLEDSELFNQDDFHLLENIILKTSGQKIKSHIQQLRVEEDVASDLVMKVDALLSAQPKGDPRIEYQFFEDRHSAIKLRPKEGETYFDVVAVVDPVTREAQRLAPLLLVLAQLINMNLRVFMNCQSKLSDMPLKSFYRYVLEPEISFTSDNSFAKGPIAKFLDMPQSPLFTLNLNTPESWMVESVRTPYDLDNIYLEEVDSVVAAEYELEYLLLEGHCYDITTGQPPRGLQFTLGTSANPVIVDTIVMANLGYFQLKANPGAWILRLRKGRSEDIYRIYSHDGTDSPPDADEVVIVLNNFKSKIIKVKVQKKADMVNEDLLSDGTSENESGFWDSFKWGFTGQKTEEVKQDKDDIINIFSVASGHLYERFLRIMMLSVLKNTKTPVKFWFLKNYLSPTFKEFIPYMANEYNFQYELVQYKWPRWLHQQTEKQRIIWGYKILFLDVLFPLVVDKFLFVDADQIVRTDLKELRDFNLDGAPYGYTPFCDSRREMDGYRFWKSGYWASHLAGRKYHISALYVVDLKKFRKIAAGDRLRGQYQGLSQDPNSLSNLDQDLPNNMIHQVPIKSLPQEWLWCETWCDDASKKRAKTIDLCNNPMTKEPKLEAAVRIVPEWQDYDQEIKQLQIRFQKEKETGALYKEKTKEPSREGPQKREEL
UniProt Q13148: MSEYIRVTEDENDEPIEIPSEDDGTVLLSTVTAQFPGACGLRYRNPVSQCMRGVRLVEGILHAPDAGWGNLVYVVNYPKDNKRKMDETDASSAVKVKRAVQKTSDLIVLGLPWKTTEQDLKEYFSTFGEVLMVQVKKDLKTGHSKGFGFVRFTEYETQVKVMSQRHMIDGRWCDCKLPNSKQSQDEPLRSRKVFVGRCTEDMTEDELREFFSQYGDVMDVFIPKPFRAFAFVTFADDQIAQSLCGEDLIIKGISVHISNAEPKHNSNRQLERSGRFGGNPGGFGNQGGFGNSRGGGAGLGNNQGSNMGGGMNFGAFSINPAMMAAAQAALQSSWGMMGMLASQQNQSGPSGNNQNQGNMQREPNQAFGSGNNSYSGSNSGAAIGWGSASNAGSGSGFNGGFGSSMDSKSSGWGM
UniProt Q9UHD9: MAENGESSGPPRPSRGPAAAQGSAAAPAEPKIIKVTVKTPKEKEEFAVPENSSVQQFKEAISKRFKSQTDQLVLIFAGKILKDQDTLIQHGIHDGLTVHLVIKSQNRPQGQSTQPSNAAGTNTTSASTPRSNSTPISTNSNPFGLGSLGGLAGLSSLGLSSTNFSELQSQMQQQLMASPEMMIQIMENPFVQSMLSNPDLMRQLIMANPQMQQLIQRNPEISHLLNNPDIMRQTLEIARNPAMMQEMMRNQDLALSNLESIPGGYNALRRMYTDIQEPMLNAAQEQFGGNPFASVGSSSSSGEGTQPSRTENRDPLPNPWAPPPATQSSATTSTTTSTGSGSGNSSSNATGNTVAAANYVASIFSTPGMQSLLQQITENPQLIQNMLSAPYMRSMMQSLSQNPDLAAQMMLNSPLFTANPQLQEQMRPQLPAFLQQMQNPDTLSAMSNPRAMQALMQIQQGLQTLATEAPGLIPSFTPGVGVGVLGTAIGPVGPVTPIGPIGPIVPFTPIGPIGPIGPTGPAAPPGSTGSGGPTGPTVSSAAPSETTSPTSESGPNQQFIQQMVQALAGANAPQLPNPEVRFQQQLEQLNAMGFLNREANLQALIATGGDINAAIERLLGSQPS
UniProt P27824, residues 21-592: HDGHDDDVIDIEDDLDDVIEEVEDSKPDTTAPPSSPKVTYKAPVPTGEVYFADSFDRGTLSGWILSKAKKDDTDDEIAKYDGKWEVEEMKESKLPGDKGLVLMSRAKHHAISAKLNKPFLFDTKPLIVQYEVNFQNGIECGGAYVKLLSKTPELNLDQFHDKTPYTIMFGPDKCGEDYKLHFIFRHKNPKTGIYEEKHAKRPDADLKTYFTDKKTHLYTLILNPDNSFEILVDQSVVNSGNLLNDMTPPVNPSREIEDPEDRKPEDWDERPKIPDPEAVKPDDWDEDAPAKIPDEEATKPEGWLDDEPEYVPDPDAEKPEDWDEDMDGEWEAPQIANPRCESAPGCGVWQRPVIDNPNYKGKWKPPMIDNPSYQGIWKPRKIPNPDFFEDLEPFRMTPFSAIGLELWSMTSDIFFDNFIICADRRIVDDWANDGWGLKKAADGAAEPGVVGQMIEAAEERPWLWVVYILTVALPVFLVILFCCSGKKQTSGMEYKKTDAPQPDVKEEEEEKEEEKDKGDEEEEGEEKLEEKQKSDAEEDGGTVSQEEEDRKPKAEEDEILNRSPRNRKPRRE

T1: H2aG78R uncleavable mutant fused through its C-terminus to a 38-amino acid streptavidin binding peptide (human) (UniProt P07307)
T1 sequence: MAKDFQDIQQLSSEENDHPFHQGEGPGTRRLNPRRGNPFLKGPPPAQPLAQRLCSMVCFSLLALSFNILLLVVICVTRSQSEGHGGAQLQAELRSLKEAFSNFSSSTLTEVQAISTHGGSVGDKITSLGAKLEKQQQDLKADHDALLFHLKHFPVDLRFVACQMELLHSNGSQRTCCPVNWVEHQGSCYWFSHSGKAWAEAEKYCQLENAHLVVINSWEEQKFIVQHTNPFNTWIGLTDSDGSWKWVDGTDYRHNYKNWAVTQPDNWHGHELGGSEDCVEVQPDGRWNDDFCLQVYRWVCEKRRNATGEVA

B1: STT3 oligosaccharyltransferase complex catalytic subunit A (enzyme, UniProt P46977 1-705)
chain: MTKFGFLRLSYEKQDTLLKLLILSMAAVLSFSTRLFAVLRFESVIHEFDPYFNYRTTRFLAEEGFYKFHNWFDDRAWYPLGRIIGGTIYPGLMITSAAIYHVLHFFHITIDIRNVCVFLAPLFSSFTTIVTYHLTKELKDAGAGLLAAAMIAVVPGYISRSVAGSYDNEGIAIFCMLLTYYMWIKAVKTGSICWAAKCALAYFYMVSSWGGYVFLINLIPLHVLVLMLTGRFSHRIYVAYCTVYCLGTILSMQISFVGFQPVLSSEHMAAFGVFGLCQIHAFVDYLRSKLNPQQFEVLFRSVISLVGFVLLTVGALLMLTGKISPWTGRFYSLLDPSYAKNNIPIIASVSEHQPTTWSSYYFDLQLLVFMFPVGLYYCFSNLSDARIFIIMYGVTSMYFSAVMVRLMLVLAPVMCILSGIGVSQVLSTYMKNLDISRPDKKSKKQQDSTYPIKNEVASGMILVMAFFLITYTFHSTWVTSEAYSSPSIVLSARGGDGSRIIFDDFREAYYWLRHNTPEDAKVMSWWDYGYQITAMANRTILVDNNTWNNTHISRVGQAMASTEEKAYEIMRELDVSYVLVIFGGLTGYSSDDINKFLWMVRIGGSTDTGKHIKENDYYTPTGEFRVDREGSPVLLNCLMYKMCYYRFGQVYTEAKRPPGFDRVRNAEIGNKDFELDVLEEAYTTEHWLVRIYKVKDLDNRGLSRT
B2: Selenoprotein 15 (protein, UniProt O60613 32-165)
chain: FGAEFSSEACRELGFSSNLLCSSCDLLGQFNLLQLDPDCRGCCQEEAQFETKKLYAGAILEVCGUKLGRFPQVQAFVRSDKPKLFRGLQIKYVRGSDPVLKLLDDNGNIAEELSILKWNTDSVEEFLSEKLERI
B3: MAGT1 (protein, UniProt Q9H0U3 30-335)
chain: QRKKEMVLSEKVSQLMEWTNKRPVIRMNGDKFRRLVKAPPRNYSVIVMFTALQLHRQCVVCKQADEEFQILANSWRYSSAFTNRIFFAMVDFDEGSDVFQMLNMNSAPTFINFPAKGKPKRGDTYELQVRGFSAEQIARWIADRTDVNIRVIRPPNYAGPLMLGLLLAVIGGLVYLRRSNMEFLFNKTGWAFAALCFVLAMTSGQMWNHIRGPPYAHKNPHTGHVNYIHGSSQAQFVAETHIVLLFNGGVTLGMVLLCEAATSDMDIGKRKIMCVAGIGLVVLFFSWMLSIFRSKYHGYPYSFLMS
B4: SSRA (protein, UniProt P43307 19-286)
chain: VLFRGGPRGLLAVAQDLTEDEETVEDSIIEDEDDEAEVEEDEPTDLVEDKEEEDVSGEPEASPSADTTILFVKGEDFPANNIVKFLVGFTNKGTEDFIVESLDASFRYPQDYQFYIQNFTALPLNTVVPPQRQATFEYSFIPAEPMGGRPFGLVINLNYKDLNGNVFQDAVFNQTVTVIEREDGLDGETIFMYMFLAGLGLLVIVGLHQLLESRKRKRPIQKVEMGTSSQNDVDMSWIPQETLNQINKASPRRLPRKRAQKRSVGSDE
B5: OSTC (protein, UniProt Q9NRP0 1-149)
chain: METLYRVPFLVLECPNLKLKKPPWLHMPSAMTVYALVVVSYFLITGGIIYDVIVEPPSVGSMTDEHGHQRPVAFLAYRVNGQYIMEGLASSFLFTMGGLGFIILDRSNAPNIPKLNRFLLLFIGFVCVLLSFFMARVFMRMKLPGYLMG

biological target: T1, H2aG78R uncleavable mutant fused through its C-terminus to a 38-amino acid streptavidin binding peptide (human); assay: affinity purification with mass spectrometry; SILAC; SBP6 cells (H2aSBP) and HEK293 control cells, with or without 50 μM MG-132 + 50 μM ALLN for 4 h, 2 mM puromycin for the last 15 min; lysis in 1% digitonin in PBS; lysates mixed 1:1; streptavidin beads overnight; elution with 250 μM biotin; SDS-PAGE, trypsin, nano LC-MS/MS; hits with >2-fold ratio labeled/unlabeled

binding, binds:
UDP-glucose glycoprotein glucosyltransferase 1 (from UniProt Q9NYU2 43-1555) (enzyme), TAR DNA-binding protein 43 (from UniProt Q13148 1-414), UBQL2 (from UniProt Q9UHD9 1-624), ubiquitin (human (endogenous in HEK293)), calnexin (from UniProt P27824 21-592), B1, B2, B3, B4, B5
